Results are given in words; binding and its absence hold for the method and conditions named. Some entries that bind do so weakly or less than the wild type.
Target: extracellular domain of CTLA-4 (yeast two-hybrid deletion construct of sCTLA-4) (human) (UniProt P16410)
Assay: two-hybrid; deletion constructs of RGMB in pGADT7 and of sCTLA-4 in pGBK-T7, Y2H-Gold yeast, SD -TL agar with X-αGal (20 μg/ml)

Amino acid sequences for entries named in this document (tags omitted). A change or cut given only in a name is not applied to a line headed by its entry. Residues count along the entry.
UniProt P16410, residues 36-161: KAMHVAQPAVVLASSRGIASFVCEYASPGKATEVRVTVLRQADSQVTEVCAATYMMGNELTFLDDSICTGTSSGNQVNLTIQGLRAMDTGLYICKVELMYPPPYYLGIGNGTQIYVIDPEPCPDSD

binding: binds
B1: RGMB aa193-222 (yeast two-hybrid deletion fragment) (domain or fragment, UniProt Q6NW40 193-222)
chain: NYLSVQVTNVPVVPGSSATATNKITIIFKA

Reference: publication PMC6502797
